# Assay results reported in publication PMC7071076, “Antibacterial Activity and Pharmacokinetic Profile of a Promising Antibacterial Agent: 22-(2-Amino-phenylsulfanyl)-22-Deoxypleuromutilin” (Molecules, 2020).
# Values joined by “and” are separate entries in the source; they are usually repeats but may differ in a detail not shown here. Equal values may be shown once. This continues a long series; more values of the same kind are listed elsewhere.
# Test: Pharmacokinetic study in mice
# Assay type: in vivo
# Conditions: mice 1-8 in order
# Experimental: Pharmacokinetic parameters of amphenmulin were measured according to previous reports with some modifications. Each group consisted of eight female SPF-ICR mice. Amphenmulin (1 mg/mL) was administered intravenously, intraperitoneally, and orally at a dose of 10 mg/kg, respectively. Formulation of amphenmulin was a filtered solution in 5% DMSO, 5% Tween-80, and 90% normal saline. Serial samples (each 0.2 mL) were collected from the ocular venous plexus and placed in a plastic centrifuge tube. The blood samples were placed at room temperature for 20 min and transferred to a 4 °C refrigerator for 12 h to promote blood coagulation. Then samples were centrifuged at 2000 r/min for 10 min to get serum. Serum samples were frozen at −20°C. 100 µL of samples was accurately absorbed and mixed with 100 µL of acetonitrile in a 1.5 mL centrifuge tube. The sample was mixed vigorously and centrifuged at 12,000 rpm for 10 min. The supernatant was transferred, filtered through a 0.22 μm cellulose membrane filter and used for LC-MS/MS analysis. Equipment and analysis conditions were shown in supplemental data. The pharmacokinetic parameters of amphenmulin were determined from the mean plasma concentration with noncompartmental analysis in WinNonlin 5.2 software (Pharsight, Mountain View, CA, USA). Data were shown as mean ± standard deviation (SD).
structure (smiles),measurement,setting,value
"C=C[C@]1(C)C[C@@H](OC(=O)CSc2ccccc2N)[C@]2(C)[C@H](C)CC[C@]3(CCC(=O)[C@H]32)[C@@H](C)[C@@H]1O [Amphenmulin, 22-(2-amino-phenylsulfanyl)-22-deoxypleuromutilin]","plasma concentration, individual mice","intraperitoneal 10 mg/kg, 0.75 h",0.71 µg/mL and 1.01 µg/mL and 0.92 µg/mL and 1.32 µg/mL and 0.62 µg/mL and 0.51 µg/mL
same,"plasma concentration, individual mice","intraperitoneal 10 mg/kg, 1 h",0.29 µg/mL and 0.57 µg/mL and 0.44 µg/mL and 0.69 µg/mL and 0.58 µg/mL and 0.91 µg/mL and 0.83 µg/mL and 0.31 µg/mL
same,"plasma concentration, individual mice","intraperitoneal 10 mg/kg, 2 h",0.25 µg/mL and 0.29 µg/mL and 0.12 µg/mL and 0.60 µg/mL and 0.42 µg/mL and 0.51 µg/mL and 0.32 µg/mL and 0.17 µg/mL
same,"plasma concentration, individual mice","intraperitoneal 10 mg/kg, 4 h",0.08 µg/mL and 0.05 µg/mL and 0.06 µg/mL and 0.31 µg/mL and 0.12 µg/mL and 0.42 µg/mL and 0.15 µg/mL and 0.25 µg/mL
same,"plasma concentration, individual mice","intraperitoneal 10 mg/kg, 6 h",0.05 µg/mL and 0.11 µg/mL (2×) and 0.09 µg/mL and 0.04 µg/mL and 0.31 µg/mL and 0.08 µg/mL and 0.21 µg/mL
same,"plasma concentration, individual mice","intraperitoneal 10 mg/kg, 8 h",0.04 µg/mL and 0.07 µg/mL and 0.06 µg/mL (2×) and 0.12 µg/mL and 0.02 µg/mL and 0.16 µg/mL and 0.05 µg/mL
same,"plasma concentration, individual mice","intraperitoneal 10 mg/kg, 12 h",0.02 µg/mL (2×) and 0.03 µg/mL and 0.01 µg/mL (3×) and 0.04 µg/mL and 0.05 µg/mL
same,"plasma concentration, individual mice","oral 10 mg/kg, 0.25 h, 10 mg/kg",0.06 µg/mL (2×) and 0.09 µg/mL and 0.12 µg/mL and 0.11 µg/mL and 0.20 µg/mL and 0.07 µg/mL and 0.04 µg/mL
same,"plasma concentration, individual mice","oral 10 mg/kg, 0.5 h, 10 mg/kg",0.34 µg/mL and 0.28 µg/mL and 0.48 µg/mL and 0.38 µg/mL and 0.32 µg/mL and 0.11 µg/mL and 0.29 µg/mL and 0.31 µg/mL
same,"plasma concentration, individual mice","oral 10 mg/kg, 1 h, 10 mg/kg",0.51 µg/mL and 0.45 µg/mL and 0.37 µg/mL and 0.81 µg/mL and 0.57 µg/mL and 0.24 µg/mL and 0.38 µg/mL and 0.61 µg/mL
same,"plasma concentration, individual mice","oral 10 mg/kg, 2 h, 10 mg/kg",0.26 µg/mL and 0.41 µg/mL and 0.11 µg/mL and 0.56 µg/mL and 0.69 µg/mL and 0.12 µg/mL and 0.25 µg/mL and 0.45 µg/mL
same,"plasma concentration, individual mice","oral 10 mg/kg, 3 h, 10 mg/kg",0.21 µg/mL and 0.11 µg/mL and 0.52 µg/mL and 0.41 µg/mL and 0.23 µg/mL and 0.08 µg/mL and 0.09 µg/mL and 0.18 µg/mL
same,"plasma concentration, individual mice","oral 10 mg/kg, 4 h, 10 mg/kg",0.15 µg/mL (2×) and 0.13 µg/mL and 0.07 µg/mL and 0.31 µg/mL and 0.05 µg/mL and 0.06 µg/mL and 0.12 µg/mL
same,"plasma concentration, individual mice","oral 10 mg/kg, 6 h, 10 mg/kg",0.08 µg/mL and 0.05 µg/mL and 0.07 µg/mL (4×) and 0.15 µg/mL and 0.06 µg/mL
same,"plasma concentration, individual mice","oral 10 mg/kg, 8 h, 10 mg/kg",0.05 µg/mL (2×) and 0.04 µg/mL (2×) and 0.02 µg/mL and 0.12 µg/mL and 0.03 µg/mL and 0.06 µg/mL
same,"plasma concentration, individual mice","oral 10 mg/kg, 12 h, 10 mg/kg",0.01 µg/mL (4×) and 0.02 µg/mL (2×) and 0.04 µg/mL and 0.03 µg/mL
